Experimental data published in patent US20100184665A1.
No constants are given. Whether binding was seen depends on the method and setting. Binding seen in cells or lysates may run through a third protein. Some results given as binding are weak or reduced against the parent protein; the word gives no strength. Tags and fused reporters may be left off the sequences shown.

Sequences of proteins named here, by UniProt entry; tags and fusion partners are left off. Residues count along the entry.
UniProt Q9JJN1, residues 29-210: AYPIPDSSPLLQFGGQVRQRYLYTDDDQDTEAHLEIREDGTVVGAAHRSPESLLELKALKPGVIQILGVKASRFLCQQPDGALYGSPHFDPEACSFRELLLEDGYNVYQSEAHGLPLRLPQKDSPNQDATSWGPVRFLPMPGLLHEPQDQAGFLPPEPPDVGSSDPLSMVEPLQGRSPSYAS

Molecular target: T1, soluble betaKlotho protein (extracellular domain of betaKlotho with a V5 tag and a His tag added to the C-terminus in tandem) (mouse) (UniProt Q99N32)
T1 sequence: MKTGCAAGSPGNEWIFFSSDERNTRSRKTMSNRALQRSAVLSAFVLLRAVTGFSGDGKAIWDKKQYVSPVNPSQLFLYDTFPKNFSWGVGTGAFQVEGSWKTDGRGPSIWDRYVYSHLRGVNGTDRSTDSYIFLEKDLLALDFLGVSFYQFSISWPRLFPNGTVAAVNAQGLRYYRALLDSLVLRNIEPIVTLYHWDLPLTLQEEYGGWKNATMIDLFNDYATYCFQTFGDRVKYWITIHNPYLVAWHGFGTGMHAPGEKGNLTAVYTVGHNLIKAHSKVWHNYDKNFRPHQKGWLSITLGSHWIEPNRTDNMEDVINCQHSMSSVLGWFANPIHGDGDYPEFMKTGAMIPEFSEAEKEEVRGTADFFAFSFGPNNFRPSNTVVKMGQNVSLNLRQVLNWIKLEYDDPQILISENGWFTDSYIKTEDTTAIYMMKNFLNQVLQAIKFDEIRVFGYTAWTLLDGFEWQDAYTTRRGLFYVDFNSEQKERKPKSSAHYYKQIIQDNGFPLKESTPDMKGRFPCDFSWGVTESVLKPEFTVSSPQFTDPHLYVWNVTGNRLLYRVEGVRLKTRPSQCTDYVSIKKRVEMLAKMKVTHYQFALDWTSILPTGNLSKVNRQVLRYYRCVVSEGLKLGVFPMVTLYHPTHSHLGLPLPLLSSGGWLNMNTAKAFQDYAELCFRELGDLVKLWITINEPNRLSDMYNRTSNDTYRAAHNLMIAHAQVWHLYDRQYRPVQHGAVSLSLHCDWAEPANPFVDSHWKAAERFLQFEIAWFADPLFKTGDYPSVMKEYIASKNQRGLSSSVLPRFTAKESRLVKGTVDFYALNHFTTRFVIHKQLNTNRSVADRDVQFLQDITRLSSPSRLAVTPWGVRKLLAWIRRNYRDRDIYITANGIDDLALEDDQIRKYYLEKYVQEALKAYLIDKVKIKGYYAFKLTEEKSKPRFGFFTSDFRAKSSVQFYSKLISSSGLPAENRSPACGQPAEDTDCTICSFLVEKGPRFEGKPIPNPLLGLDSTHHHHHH
Assay: co-precipitation with anti-V5 tag antibody-immobilized beads, immunoblot for FGF21, with or without heparin

binding: binds
Substance: FGF21 (mouse-derived) (from UniProt Q9JJN1 29-210) (ligand)
